From patent US5234903A, “Chemically modified hemoglobin as an effective, stable non-immunogenic red blood cell substitute” (Enzon, Inc., priority 1990, dated 1993)

Test: % deoxyHb after PEGylation (OSM3 Hemoximeter)
Assay type: physicochemical

Substance	% deoxyHb (after PEGylation) (0% deoxyHb before PEGylation, SC-PEG)	% deoxyHb (after PEGylation) (20% deoxyHb before PEGylation, SC-PEG)	% deoxyHb (after PEGylation) (35% deoxyHb before PEGylation, SC-PEG)	% deoxyHb (after PEGylation) (50% deoxyHb before PEGylation, SC-PEG)	% deoxyHb (after PEGylation) (70% deoxyHb before PEGylation, SC-PEG)	% deoxyHb (after PEGylation) (90% deoxyHb before PEGylation, SC-PEG)	% deoxyHb (after PEGylation) (95% deoxyHb before PEGylation, SC-PEG)	% deoxyHb (after PEGylation) (0% deoxyHb before PEGylation, BSC-PEG)	% deoxyHb (after PEGylation) (25% deoxyHb before PEGylation, BSC-PEG)	% deoxyHb (after PEGylation) (45% deoxyHb before PEGylation, BSC-PEG)	% deoxyHb (after PEGylation) (61% deoxyHb before PEGylation, BSC-PEG)	% deoxyHb (after PEGylation) (76% deoxyHb before PEGylation, BSC-PEG)	% deoxyHb (after PEGylation) (93% deoxyHb before PEGylation, BSC-PEG)
Example VIII: bovine hemoglobin partially deoxygenated by gas exchange, modified with SC-PEG (M.W. 5141), SC-PEG:Hb 12:1	0%	18%	33%	48%	68%	88%	92%						
Example X: bovine hemoglobin deoxygenated by gas exchange, modified with BSC-PEG (M.W. 5000), BSC-PEG:Hb 2.5:1, crosslinked								0%	23%	43%	60%	74%	91%
